Measurements: US20250270324A1
These are yes or no findings as the source states them, for the method shown. Some entries that bind do so weakly or less than the wild type. Each block holds one binder with its values, some of them ahead of it.

Sequences of proteins named here, by UniProt entry; tags and fusion partners are left off. A change or cut given only in a name is not applied to a line headed by its entry. Residues count along the entry.
UniProt Q9NZQ7: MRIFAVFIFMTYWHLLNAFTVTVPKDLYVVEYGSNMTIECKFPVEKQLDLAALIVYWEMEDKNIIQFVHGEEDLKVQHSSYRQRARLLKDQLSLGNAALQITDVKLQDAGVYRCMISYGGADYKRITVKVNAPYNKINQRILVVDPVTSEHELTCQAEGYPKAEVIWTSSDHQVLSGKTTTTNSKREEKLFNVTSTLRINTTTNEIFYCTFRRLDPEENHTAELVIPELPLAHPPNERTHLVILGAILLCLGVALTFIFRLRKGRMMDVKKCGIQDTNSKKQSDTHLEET
human PD-L1-Fc (R&D Biosystems, 156-B7): residues 19-239 of Q9NZQ7

What was measured:
[1] = molecular target: Cyno PD-L1-rCD4-His (cynomolgus); experiment: SPR, IgG1 from culture supernatant
[2] = molecular target: human PD-L1-rCD4-His (human); experiment: SPR, IgG1 from culture supernatant
[3] = molecular target: human PD-L1-Fc (R&D Biosystems, 156-B7) (human) (UniProt Q9NZQ7); experiment: SPR, antigen on CM5 chip, mAb^2 at 1 nM
[4] = molecular target: PD-L1-His (Acrobiosystems, PD1-H83F3) (human) (UniProt Q9NZQ7); experiment: SPR, antigen on CM5 chip, mAb^2 at 1 nM

B1: G1/929_01_A05 (antibody, human IgG1, V domains shown)
VH: EVQLVQSGAEVKRPGASVKVSCKASGYTFTSYGISWVRQAPGQGLEWMGWISAYSGGTNYAQKLQGRVTMTTDTSTSTAYMELRSLRSDDTAVYYCARDLFPTIFGVSYYYYWGQGTLVTVSS
VL: DIQMTQSPSTLSASVGDRVTITCRASQSISGRLAWYQQKPGKAPNLLIYEASNLESGVPSRFSGSGSGTEFTLTINSLQPDDFATYYCQQANTFPRVSFGGGTKVEIKR
binding [1]: binds | binding [2]: binds

B2: G1/929_01_A06 (antibody, human IgG1, V domains shown)
VH: EVQLVQSGAEVKRPGASVKVSCKASGYTFTSYGISWVRQAPGQGLEWMGWISAYSGNANYAQKLQGRVTMTTDTSTSTAYMELRSLRSDDTAVYYCARDLFPTIFGVSYYYYWGQGTLVTVSS
VL: DIQMTQSPSTLSASVGDRVTITCRASQSISGRLAWYQQKPGKAPNLLIYEASNLESGVPSRFSGSGSGTEFTLTINSLQPDDFATYYCQQANTFPRVSFGGGTKVEIKR
binding [1]: binds | binding [2]: binds

B3: G1/929_01_A12 (antibody, human IgG1, V domains shown)
VH: EVQLVQSGAEVKRPGASVKVSCKASGYTFTSYGISWVRQAPGQGLEWMGWISAYSGNANYAQKLQGRVTMTTDTSTSTAYMELRSLRSDDTAVYYCARDLFPTIFGVSYYYYWGQGTLVTVSS
VL: DIQMTQSPSTLSASVGDRVTITCRASQSISGRLAWYQQKPGKAPNLLIYEASNLESGVPSRFSGSGSGTEFTLTISSLQPEDFATYYCQQSYSWPRTFGQGTKVEIKR
binding [1]: binds | binding [2]: binds

More lines, now with the values ahead:

binding [3]: binds | binding [4]: binds
B4: FS22-172-003AA/E12v2 (bispecific antibody, human IgG1, kappa, L234A L235A, V domains shown)
VH: EVQLVQSGAEVKRPGASVKVSCKASGYPFTSYGISWVRQAPGQGLEWMGWISAYSGGTNYAQKLQGRVTMTTDTSTSTAYMELRSLRSDDTAVYYCARDLFPTIFGVSYYYYWGQGTLVTVSS
VL: DIQMTQSPSTLSASVRDRVIITCRASQSIGNRLAWYQHKPGKAPKLLIYEASTSETGVPSRFSGSGSGTDFTLTISSLQPEDFATYYCQQSYSTPYTFGQGTKLEIKR

binding [3]: binds | binding [4]: binds
B5: FS22-172-003AA/G12v2 (bispecific antibody, human IgG1, kappa, L234A L235A, V domains shown)
VH: EVQLVQSGAEVKRPGASVKVSCKASGYTFTSYGISWVRQAPGQGLEWMGWISAYSGGTNYAQKLQGRVTMTTDTSTSTAYMELRSLRSDDTAVYYCARDLFPTIFGVSYYYYWGQGTLVTVSS
VL: DIQMTQSPSTLSASVGDRVTITCRASQSISGRLAWYQQKPGKAPNLLIYEASNLESGVPSRFSGSGSGTEFTLTISSLQPEDFATYYCQQSYSWPRTFGQGTKVEIKR
